Source: PMC3978657, “Early Steps in Autophagy Depend on Direct Phosphorylation of Atg9 by the Atg1 Kinase” (Molecular Cell, 2014)
These are yes or no findings as the source states them, for the method shown. In cells and extracts the contact can be indirect. Here binding means that the protein was enriched with, or labelled near, the bait; the list need not be complete. Where a sequence is shown, tags or fusion partners need not be part of it.

Target: T1, TAP-tagged wild-type Atg1 (genomically integrated) (S. cerevisiae) (UniProt P53104)
T1 sequence: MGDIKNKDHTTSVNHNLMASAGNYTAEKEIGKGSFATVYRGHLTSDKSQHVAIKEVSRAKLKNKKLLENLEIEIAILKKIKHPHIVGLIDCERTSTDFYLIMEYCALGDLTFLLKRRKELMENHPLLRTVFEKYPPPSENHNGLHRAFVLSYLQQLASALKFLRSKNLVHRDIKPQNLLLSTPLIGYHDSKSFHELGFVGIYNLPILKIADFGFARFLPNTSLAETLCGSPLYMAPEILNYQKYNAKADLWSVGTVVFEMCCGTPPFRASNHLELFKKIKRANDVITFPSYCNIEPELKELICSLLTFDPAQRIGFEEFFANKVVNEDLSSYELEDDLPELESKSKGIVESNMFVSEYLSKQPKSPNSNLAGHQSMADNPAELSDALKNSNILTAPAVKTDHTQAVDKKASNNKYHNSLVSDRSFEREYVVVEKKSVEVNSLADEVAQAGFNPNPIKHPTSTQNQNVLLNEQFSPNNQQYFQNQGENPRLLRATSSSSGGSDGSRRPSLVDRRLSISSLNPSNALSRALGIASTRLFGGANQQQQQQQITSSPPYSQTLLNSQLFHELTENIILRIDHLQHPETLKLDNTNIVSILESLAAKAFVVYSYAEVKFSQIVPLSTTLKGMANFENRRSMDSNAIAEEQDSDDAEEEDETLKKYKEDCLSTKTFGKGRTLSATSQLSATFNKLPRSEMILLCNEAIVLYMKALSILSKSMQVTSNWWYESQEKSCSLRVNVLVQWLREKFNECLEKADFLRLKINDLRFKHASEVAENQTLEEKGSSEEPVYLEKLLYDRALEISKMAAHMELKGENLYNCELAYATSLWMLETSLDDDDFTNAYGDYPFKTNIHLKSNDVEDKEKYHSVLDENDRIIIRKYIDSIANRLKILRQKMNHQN
Assay: affinity purification with mass spectrometry; Atg1-TAP from rapamycin-treated yeast extract on IgG-coupled magnetic beads, 1 hr at 4°C, washed in lysis buffer (PBS, 10% glycerol, 0.5% Tween-20), eluted by TEV cleavage; silver-stained gel bands identified by mass spectrometry

binding: binds
B1: Atg17 (protein, UniProt Q06410 1-417)
chain: MNEADVTKFVNNARKTLTDAQLLCSSANLRIVDIKKKLSSWQLSISKLNFLIVGLRQQGKFLYTILKEGIGTKLIQKQWNQAVLVVLVDEMKYWQYEITSKVQRLDGIVNELSISEKDDTDPSKLGDYISRDNVNLLNDKLKEVPVIERQIENIKLQYENMVRKVNKELIDTKLTDVTQKFQSKFGIDNLMETNVAEQFSRELTDLEKDLAEIMNSLTQHFDKTLLLQDKKIDNDEREELFKVVQGDDKELYNIFKTLHEVIDDVDKTILNLGQFLQAKIKEKTELHSEVSEIINDFNRNLEYLLIFKDISNLIDSFKNSCTQDIQTTKELCEFYDNFEESYGNLVLEAKRRKDVANRMKTILKDCEKQLQNLDAQDQEERQNFIAENGTYLPETIWPGKIDDFSSLYTLNYNVKNP
